Source: patent publication US20230399314A1, “CD73 INHIBITOR AND USE THEREOF” (WUHAN HUMANWELL INNOVATIVE DRUG RESEARCH AND DEVELOPMENT …, priority 2020, published 2023)
For at least one compound, name, drawing or mass did not settle the structure.

System: A375 melanoma
Assay: In vivo efficacy on A375 melanoma (PBMC + A375 cells in NCG mice)
Settings: same dose, in combination with PD-1 antibody
Description: A375 cells in logarithmic growth phase were collected, cultured in Mitomycin C for 2 h, and washed three times with PBS. After 5 days of co-culture of PBMC and A375 cells, PBMC and freshly digested A375 cells were collected, 5×10^5 PBMC and 4×10^6 A375 cells were inoculated subcutaneously on the right side of NCG mice according to 0.2 mL/mouse (containing 50% Matrigel). After inoculation, the mice were randomly divided into a model group and an administration group according to body weight of the mice, tumor size and animal weight were measured and recorded before and during administration, and tumor sizes of the model group and the administration group were compared after treatment to determine the efficacy.

For `O=c1[nH]cc(-c2cc([C@H]3C[C@@H]3CF)c(Cl)nn2)c(=O)[nH]1` [Compound 1, 5-(6-chloro-5-((1S,2S)-2-(fluoromethyl)cyclopropyl)pyridazin-3-yl)pyrimidine-2,4(1H,3H)-dione], the “synergetic effect with PD-1 antibody on the growth of A375 melanoma” value was “better than the reference compound”.
